# Experimental data reported in patent US20230324419A1, “METHOD FOR DIAGNOSING ACTING OF NERVONIC ACID AND USE THEREOF” (BAO FENG BIOTECH (BEIJING) CO., LTD, priority 2020, published 2023).
# Test: Youden index / ROC analysis of differential serum lipids after acer truncatum bunge seed oil supplementation (UPLC-QTOF lipidomics)
# Format: in vivo, SD rats
# [1] = 7 days of acer truncatum bunge seed oil supplementation
# [2] = 3 days of acer truncatum bunge seed oil supplementation
# [3] = 1 day of acer truncatum bunge seed oil supplementation
# [4] = single serum lipid predicting supplementation, 1 day of acer truncatum bunge seed oil (nervonic acid 0.03 g/kg/d, gavage), NA vs CK group
Compound,AUC [1],sensitivity [1],specificity [1],AUC [2],sensitivity [2],specificity [2],sensitivity [3],specificity [3],AUC [4]
"1,2-didocosanoyl-sn-glycero-3-phosphosulfocholine",1,1,1,–,–,–,–,–,–
18:1-Glc-Campesterol,–,–,–,1,1,1,–,–,–
CCCCCCCC/C=C\CCCCCCCCCCCCCC(=O)N[C@@H](CO)[C@H](O)/C=C/CCCCCCCCCCCCC [Cer(d18:1/24:1(15Z))],1,1,1,1,1,1,–,–,–
"CCCCCCCC/C=C\C/C=C\C/C=C\CCCC(=O)OC[C@H](COP(=O)([O-])OCC[N+](C)(C)C)OC(=O)CCCCCCCCCCCCCCCCC [PC(20:3(5Z,8Z,11Z)/18:0)]",–,–,–,0.88,0.8,1,–,–,–
"CC/C=C\C/C=C\C/C=C\C/C=C\C/C=C\CCCC(=O)OC[C@H](COP(=O)([O-])OCC[N+](C)(C)C)OC(=O)CCCCCC/C=C\C/C=C\C/C=C\CCCCC [PC(20:5(5Z,8Z,11Z,14Z,17Z)/20:3(8Z,11Z,14Z))]",–,–,–,0.96,1,0.8,–,–,–
"CCCCC/C=C\C/C=C\C/C=C\CCCCCCC(=O)O[C@H](COC(=O)CCCCCCCCCCCCCCCCC)COP(=O)(O)OC1C(O)C(O)C(O)[C@@H](O)C1O (stereo partly drawn) [PI(18:0/20:3(8Z,11Z,14Z))]",–,–,–,0.92,0.8,1,–,–,–
"CCCCC/C=C\C/C=C\CCCCCCCCCC(=O)O[C@H](COC(=O)CCCCCCCCCCCCCCCCCCCC)COP(=O)(O)OC[C@H](N)C(=O)O [PS(21:0/20:2(11Z,14Z))]",–,–,–,0.88,0.8,1,–,–,–
"CC/C=C\C/C=C\C/C=C\C/C=C\C/C=C\CCCCCC(=O)OC[C@@H](COC(=O)CCCCCCC/C=C\CCCC)OC(=O)CCCCCCCCC/C=C\C/C=C\CCCCC [TG(14:1(9Z)/20:2(11Z,14Z)/22:5(7Z,10Z,13Z,16Z,19Z))]",–,–,–,–,–,–,1,1,1
"CC/C=C\C/C=C\C/C=C\C/C=C\C/C=C\C/C=C\CCC(=O)OC[C@@H](COC(=O)CCCCCCCCCCCCCCC)OC(=O)CCCCCC/C=C\C/C=C\C/C=C\CCCCC [TG(16:0/20:3(8Z,11Z,14Z)/22:6(4Z,7Z,10Z,13Z,16Z,19Z))]",–,–,–,–,–,–,1,0.8,0.92
"CC/C=C\C/C=C\C/C=C\C/C=C\CCCCC(=O)O[C@H](COC(=O)CCCCCCC/C=C\CCCCCC)COC(=O)CCCCCCCCC/C=C\CCCCCCCCCC [TG(16:1(9Z)/18:4(6Z,9Z,12Z,15Z)/22:1(11Z))]",–,–,–,–,–,–,1,0.8,0.88
"CC/C=C\C/C=C\C/C=C\C/C=C\C/C=C\C/C=C\CCC(=O)OC[C@@H](COC(=O)CCCCCCC/C=C\CCCCCC)OC(=O)CCCCC/C=C\C/C=C\C/C=C\C/C=C\C/C=C\CC [TG(16:1(9Z)/22:5(7Z,10Z,13Z,16Z,19Z)/22:6(4Z,7Z,10Z,13Z,16 Z,19Z))]",–,–,–,–,–,–,1,0.8,0.96
"CCCCC/C=C\C/C=C\C/C=C\C/C=C\CCCC(=O)OC[C@@H](COC(=O)CCCC/C=C\C/C=C\C/C=C\CCCCC)OC(=O)CCCCCC/C=C\C/C=C\C/C=C\CCCCC [TG(18:3(6Z,9Z,12Z)/20:3(8Z,11Z,14Z)/20:4(5Z,8Z,11Z,14Z))]",–,–,–,–,–,–,1,0.8,0.96
SM(d17:1/24:1),1,1,1,1,1,1,–,–,–
SM(d18:2/24:0),1,1,1,1,1,1,–,–,–
"TG(17:2(9Z,12Z)/18:1(9Z)/22:1(11Z))",–,–,–,1,1,1,–,–,–
